Library screening results

Measurements from “University of Dundee, Small-Polar-MMV Screening Library” (2021), ChEMBL document CHEMBL3988442.

A: 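Whole-cell assay for inhibitors of Mycobacterium tuberculosis growth, labelled Cornell in the record; the read-out is not stated. The concentration is filed as 10 mM, unlikely as a test dose, so the dose is not known. Higher means stronger inhibition (inferred from two other growth screens of the library). Of about 53,000 compounds tested this way, about 900 (1.7%) reached 50% or more in at least one test.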
B: 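Assay on Mycobacterium tuberculosis, filed only as a heat shock assay from Cornell; the read-out is not stated. The concentration is filed as 10 mM, unlikely as a test dose, so the dose is not known. The record gives no direction; compounds that gave an IC50 in retests scored well above the rest, so higher reads as stronger inhibition. Size under these conditions: about 69,000 compounds, about 930 of them at 50% or above in at least one test.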

The filed quantity is “Percent Effect” (%). How 0% and 100% were set is not recorded. Most values in the screen are low, and negative values occur. This is an unselected part of the compounds tested. A dash means the value is not listed here; it may have been measured.

SMILES,A,B
CC(C)c1nc(CN(C)C2CCN(Cc3nnc(C4CC4)o3)C2)no1 (stereo not given),-,1.828%
COCC(C)NCc1nc(-c2ccc(C)cc2)c(-c2ccccn2)[nH]1 (stereo not given),26.17%,76.34%
O=C(CC1CC1)N1C[C@@H](O)[C@H](N2CCN(c3ccccc3)CC2)C1,21.28%,-13.5%
O=S(=O)(c1ccc2c(c1)OCCO2)N1CCc2ccccc2C1,-,-4.595%
CCn1c(C2CCCN(C(=O)C(C)(C)OC)C2)nn(CCN(C)C)c1=O (stereo not given),1.277%,11.87%
Cc1ocnc1C(=O)N(C)[C@@H]1CC[C@@H](Oc2ccccc2)[C@@H]1O,5.586%,6.399%
Cc1noc(C)c1CN1CC2(CCCCN2C)CC1=O.O=C(O)C(F)(F)F (stereo not given),-26.13%,-18.16%
[H][C@@]12CCN(C(=O)c3cscn3)[C@]1([H])CN(C(=O)C1CCOC1)C2 (stereo not given in full),-35.62%,2.482%
CC(C)c1nnc2ccc(N3CCC(C(=O)NC4CC4)CC3)nn12,18.68%,12.98%
CS(=O)(=O)Cc1nc(CN2CCC(C(F)(F)F)CC2)cs1,4.645%,-4.613%
O=C(O)C(F)(F)F.[H][C@]12CCN(CCOC)[C@@]1([H])CCC(COCC(=O)N1CCCC1)O2 (stereo not given in full),-7.914%,-19.46%
CCS(=O)(=O)N1CCc2cc(C(=O)NC)c(NCC3CC3)nc2CC1,20.65%,-18.54%
Oc1nnc(-c2ccccc2)c2sc(N3CCCCC3)nc12,-51%,-6.787%
CC(CNC(=O)NCc1ccco1)N1CCc2sccc2C1 (stereo not given),-,-6.786%
COc1cc(C)c(CN2CCC3(CC2)[C@H](O)C[C@@H]3OCCN)cc1C,-18.09%,-33.59%
CCCNC(=O)CCNC(=O)c1sc2ccc(F)cc2c1C,-,-14.3%
CC(C)C(NC(=O)NCC1CC1)c1nnc2n1CCC2 (stereo not given),4.821%,-9.821%
CC(C)CC(C#N)NC(=O)c1ccc(Oc2cccnc2)cc1 (stereo not given),-,-2.784%
CCOc1ccc2oc(-c3cn(C)nc3C)c(O)c(=O)c2c1,-32.99%,12.55%
C[C@H](NC(=O)OC(C)(C)C)c1nnc(S(=O)(=O)Cc2cccc(F)c2)o1,-26.24%,-6.703%
O=C(O)CC(O)(CC(=O)O)C(=O)O.OC1CCCN(Cc2ccnc(-c3cccnc3)n2)C1 (stereo not given),-5.835%,-5.175%
Cn1nc(C(=O)NCc2ccc(OC3CCCCC3)nc2)ccc1=O,-19.53%,15.36%
Cc1cc(C)c2[nH]c(C(=O)NCCN3CCNC3=O)c(C)c2c1,-,3.46%
Cc1nc(-c2ccco2)ccc1C(=O)NCCN1CCN(C)CC1,18.74%,-33.56%
Cc1csc(CCNC(=O)C2CCCN(C3CCOCC3)C2)n1 (stereo not given),-11.32%,8.94%
C[C@@H]1CN(C2(C(=O)N3CCOCC3)Cc3ccccc3C2)C[C@H](C)O1,13.51%,3.26%
Cc1nc(C2CCCN(C(=O)CO)C2)cc(N2CCOCC2)n1 (stereo not given),-27.26%,-4.24%
O=C1CC(NCc2ccccn2)CN1CCc1ccc(F)cc1 (stereo not given),-26.84%,16.11%
CCCn1ncc(C(=O)NCc2n[nH]c3c2CCCCC3)c1C,-0.8499%,-16.74%
c1cc(CNCC2Cn3nncc3CO2)cs1 (stereo not given),-0.7442%,-18.04%
NC(=O)C1CCN(C(=O)c2cccc(CN3CCOCC3)c2)CC1,-21.77%,-9.126%
c1cc(C2CCN(Cc3nc(C4CC4)no3)CC2)[nH]n1,4.267%,-25.96%
O=C(C1CCOC1)N1CCC2(CC1)CN(Cc1nccs1)CCO2 (stereo not given),20.63%,-46.15%
COc1cc(C(=O)NS(=O)(=O)c2ccc(C#N)cc2)ccc1C,-19.49%,-4.675%
CC(C)CN1C[C@@H](C(=O)O)C[C@@H](C(=O)NCc2ccncc2)C1,-43.64%,-20.83%
Cn1cc(C(=O)CC2CCCN2C(=O)c2cncc3ccccc23)cn1 (stereo not given),-,-1.564%
Cc1nc(CNC2CC(=O)N(CCc3cccc(Cl)c3)C2)c[nH]1 (stereo not given),15.45%,-0.6541%
O=C(O)C(F)(F)F.O=C(O)C(F)(F)F.O=S(=O)(C1CC1)N1CCC2(CC1)CN(Cc1ccccn1)CCO2,-29.24%,3.848%
CN1CCCCC1c1ncc2c(n1)CCN(Cc1ccc(F)cc1)C2 (stereo not given),-44.49%,35.62%
O=C(c1cnc(C2CC2)nc1O)N1CCN(Cc2ccccc2F)CC1,24.93%,2.028%
O=C(N[C@@H]1CN(Cc2ccc3[nH]ccc3c2)C[C@H]1O)c1cscn1,-,-36.22%
O=C(O)C(F)(F)F.[H][C@@]12CN(CCc3ccccc3)C[C@H](C(=O)N3CCCO3)[C@]1([H])CCO2,-60.94%,-7.899%
CCCn1c(=O)n(CCC(=O)N(C)Cc2ccc(C)o2)c2ccccc21,-,-37.48%
CC(C)C(=O)N1CCCN(C(=O)NC2CCc3ccccc3C2)CC1 (stereo not given),22.28%,-7.91%
CC(C)N(Cc1ccc(Cl)c(Cl)c1)C(=O)Cn1cncn1,23.86%,-9.839%
Clc1ccc(OCCCN2CCOC(Cn3cncn3)C2)cc1 (stereo not given),-38.96%,-9.738%
CCn1cc(S(=O)(=O)N2CCCCCC2c2cc(C)on2)cn1 (stereo not given),26.73%,7.28%
CC(C)(C)CNC[C@H]1Cn2ccnc2CO1,-20.01%,-8.624%
Cc1ccc(C)c(C(C)NC(=O)N2CCC(n3cncn3)CC2)c1 (stereo not given),-,-6.668%
COc1cc2nc3n(c(=O)c2cc1OC)CCN(C(=O)C1CC1)CC3,-,-21.3%
CCCn1ncc(C(=O)NC2CCN(C3CCOCC3)CC2)c1C,11.86%,0.6921%
CC(=O)NC1(C(=O)N2CCC(Nc3cccnn3)CC2)CCCCC1,-,-46.88%
Cc1nc(C)c(C(=O)NCCNC(=O)Cc2ccc(F)cc2)s1,-,-21.09%
CC(C)c1ccc(OCn2ccc(C(=O)N3CCCC3)n2)cc1,29.97%,19.89%
CCOc1ccccc1C(=O)Oc1cc(=O)n2cccc(C)c2n1,25.17%,3.934%
Cc1cccc(CC2CCCN(C(=O)C3CCOCC3)C2)n1 (stereo not given),-12.84%,-2.243%
CCCN(C(=O)c1ccncc1)c1nc2c(s1)CCc1c-2cnn1C,54%,61.93%
CCOC(=O)C1CCCN(c2ccc(-c3nc(C)no3)cn2)C1 (stereo not given),11.2%,-1.173%
CN(C)C(=O)c1ccccc1NCCCOc1cccc(C#N)c1,-,-27.1%
O=C(CC1CCCO1)NCc1ccccc1Cn1cncn1 (stereo not given),16.34%,1.314%

The first 7 entries again:

CC(C)c1nc(CN(C)C2CCN(Cc3nnc(C4CC4)o3)C2)no1 (stereo not given) gave B: 1.828%.
COCC(C)NCc1nc(-c2ccc(C)cc2)c(-c2ccccn2)[nH]1 (stereo not given) gave A: 26.17%; B: 76.34%.
O=C(CC1CC1)N1C[C@@H](O)[C@H](N2CCN(c3ccccc3)CC2)C1 gave A: 21.28%; B: -13.5%.
O=S(=O)(c1ccc2c(c1)OCCO2)N1CCc2ccccc2C1 gave B: -4.595%.
CCn1c(C2CCCN(C(=O)C(C)(C)OC)C2)nn(CCN(C)C)c1=O (stereo not given) gave A: 1.277%; B: 11.87%.
Cc1ocnc1C(=O)N(C)[C@@H]1CC[C@@H](Oc2ccccc2)[C@@H]1O gave A: 5.586%; B: 6.399%.
Cc1noc(C)c1CN1CC2(CCCCN2C)CC1=O.O=C(O)C(F)(F)F (stereo not given) gave A: -26.13%; B: -18.16%.